According to patent US20050214809:
For part of these data: Where a protein sequence is shown, tags need not be part of it. For part of these data: For at least one entry, the source does not settle the construct or the ends of the probe.

What was measured:
thermostable RNase H = experiment: enzyme reaction in vitro; details: ribonucleotides at positions 11-14 (GAGA), rest DNA; 50 C, 1x RNase H buffer, 10 pmol probe, 5 units; 0.2 pmol target distinguishable in 5 min; purified recombinant protein; label: fluorescein and TAMRA on dT at positions 10 and 15
[1] = biological target: T1, RNase H (Escherichia coli) (UniProt P0A7Y4); experiment: enzyme reaction in vitro; details: ribonucleotides at positions 11-14 (GAGA), rest DNA; 37 C, 10 mM MgCl2, phi29 buffer; target generated as RCA product; purified recombinant protein; label: fluorescein and TAMRA on dT at positions 10 and 15
T1 sequence (looked up, limits assumed): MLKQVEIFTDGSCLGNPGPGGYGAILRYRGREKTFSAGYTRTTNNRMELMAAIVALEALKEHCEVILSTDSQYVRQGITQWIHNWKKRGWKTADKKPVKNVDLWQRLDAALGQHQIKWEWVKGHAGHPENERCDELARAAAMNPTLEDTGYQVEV

phi29 DNA polymerase = biological target: T2, phi29 DNA polymerase (UniProt P03680); experiment: activity assay; details: RCA extension, 37 C, 10 mM MgCl2; no signal without polymerase; purified recombinant protein
T2 sequence (looked up, limits assumed): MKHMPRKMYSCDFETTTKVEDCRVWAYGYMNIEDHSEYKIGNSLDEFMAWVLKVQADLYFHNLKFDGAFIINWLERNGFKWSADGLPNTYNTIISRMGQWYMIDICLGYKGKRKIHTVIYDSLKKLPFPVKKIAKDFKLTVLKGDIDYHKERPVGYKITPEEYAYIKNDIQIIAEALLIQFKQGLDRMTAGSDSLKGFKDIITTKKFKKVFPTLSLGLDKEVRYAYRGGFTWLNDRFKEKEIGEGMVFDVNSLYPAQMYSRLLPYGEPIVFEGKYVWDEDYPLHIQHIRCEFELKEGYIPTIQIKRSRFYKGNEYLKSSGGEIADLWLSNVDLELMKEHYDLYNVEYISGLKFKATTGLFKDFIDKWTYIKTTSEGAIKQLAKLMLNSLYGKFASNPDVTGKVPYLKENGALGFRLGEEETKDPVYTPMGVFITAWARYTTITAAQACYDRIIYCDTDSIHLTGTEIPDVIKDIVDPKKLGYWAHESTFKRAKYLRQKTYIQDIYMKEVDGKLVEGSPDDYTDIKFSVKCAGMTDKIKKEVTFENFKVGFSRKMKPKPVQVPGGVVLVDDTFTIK

Sequence | activity on this sequence (thermostable RNase H) | activity on this sequence [1] | activity on this sequence (phi29 DNA polymerase)
TATGCCATTTGAGATTTTTGAATT | active | active | 
CTAAATAACCAGGTACAATATGCCATTTGAGATTTTTGAATTGGTCTTAGAACGCCATTTTGGCTGATTAAAAACGAGTG / TGGCGTTCTAAGACC [circularized RCA substrate with 15-mer primer] |  |  | active
